{"sequences": {"note": "Amino acid sequences for entries named in this document (tags omitted). A change or cut given only in a name is not applied to a line headed by its entry.", "UniProt Q6WKZ8": "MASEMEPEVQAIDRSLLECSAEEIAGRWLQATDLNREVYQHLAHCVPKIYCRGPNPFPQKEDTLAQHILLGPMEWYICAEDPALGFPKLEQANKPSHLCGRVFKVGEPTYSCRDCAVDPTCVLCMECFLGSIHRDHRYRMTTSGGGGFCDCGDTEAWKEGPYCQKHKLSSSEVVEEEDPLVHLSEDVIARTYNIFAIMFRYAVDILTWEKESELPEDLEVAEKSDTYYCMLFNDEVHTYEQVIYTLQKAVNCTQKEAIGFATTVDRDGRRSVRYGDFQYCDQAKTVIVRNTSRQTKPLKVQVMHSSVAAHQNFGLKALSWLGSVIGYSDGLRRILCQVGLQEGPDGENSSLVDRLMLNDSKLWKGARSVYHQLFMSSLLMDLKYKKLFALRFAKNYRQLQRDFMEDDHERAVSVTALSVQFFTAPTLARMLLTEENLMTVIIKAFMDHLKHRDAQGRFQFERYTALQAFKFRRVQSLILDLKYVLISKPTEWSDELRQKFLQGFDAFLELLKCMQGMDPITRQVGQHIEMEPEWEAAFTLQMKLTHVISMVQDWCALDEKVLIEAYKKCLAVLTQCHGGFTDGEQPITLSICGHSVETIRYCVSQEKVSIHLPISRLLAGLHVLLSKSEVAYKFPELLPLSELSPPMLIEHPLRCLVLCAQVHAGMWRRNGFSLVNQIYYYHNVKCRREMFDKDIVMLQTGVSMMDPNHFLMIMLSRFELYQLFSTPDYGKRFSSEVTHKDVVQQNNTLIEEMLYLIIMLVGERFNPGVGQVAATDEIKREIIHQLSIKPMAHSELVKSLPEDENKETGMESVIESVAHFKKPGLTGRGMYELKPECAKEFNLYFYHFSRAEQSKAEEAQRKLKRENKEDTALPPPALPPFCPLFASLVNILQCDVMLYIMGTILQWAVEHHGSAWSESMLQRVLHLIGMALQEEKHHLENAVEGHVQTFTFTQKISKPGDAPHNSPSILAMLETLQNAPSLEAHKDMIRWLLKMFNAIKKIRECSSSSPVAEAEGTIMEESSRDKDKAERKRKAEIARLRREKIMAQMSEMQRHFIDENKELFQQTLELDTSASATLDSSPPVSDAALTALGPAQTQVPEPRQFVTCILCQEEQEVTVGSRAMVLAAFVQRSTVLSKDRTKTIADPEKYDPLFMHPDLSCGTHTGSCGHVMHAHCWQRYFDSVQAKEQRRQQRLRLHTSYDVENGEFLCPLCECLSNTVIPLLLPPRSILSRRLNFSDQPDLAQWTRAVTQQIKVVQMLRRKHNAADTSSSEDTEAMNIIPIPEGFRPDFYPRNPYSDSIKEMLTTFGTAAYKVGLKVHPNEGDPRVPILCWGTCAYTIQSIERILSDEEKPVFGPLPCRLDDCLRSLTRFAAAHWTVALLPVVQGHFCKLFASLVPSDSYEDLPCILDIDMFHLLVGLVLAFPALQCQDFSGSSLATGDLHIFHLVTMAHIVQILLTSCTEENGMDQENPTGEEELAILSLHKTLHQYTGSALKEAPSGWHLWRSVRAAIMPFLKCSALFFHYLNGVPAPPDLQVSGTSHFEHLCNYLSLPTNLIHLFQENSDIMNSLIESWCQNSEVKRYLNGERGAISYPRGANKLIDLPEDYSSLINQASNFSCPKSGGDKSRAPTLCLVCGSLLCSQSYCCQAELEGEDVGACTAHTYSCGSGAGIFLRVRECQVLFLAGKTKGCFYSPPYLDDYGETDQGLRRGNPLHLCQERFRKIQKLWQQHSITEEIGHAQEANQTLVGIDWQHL"}, "source": "patent US20210364527A1", "key": {"[1]": {"biological_target": "T1, FITC-labeled RA peptide …-FITC", "T1 sequence (peptide, C-terminal FITC)": "RAKLDEESILKQK", "assay": "fluorescence polarization titration"}, "[2]": {"biological_target": "T2, FITC-labeled KA peptide …-FITC", "T2 sequence (peptide, C-terminal FITC)": "KAKLDEESILKQK", "assay": "fluorescence polarization titration"}}, "note": "No constants are given. Whether binding was seen depends on the method and setting. Some entries that bind do so weakly or less than the wild type."}
{"substance": "Mus musculus UBR-box domain (PS535) (from UniProt Q6WKZ8 98-168)", "values": [{"measurement": "binding", "setting": "[1]", "result": "binds"}, {"measurement": "binding", "setting": "[2]", "result": "binds"}]}
